Here are results for 10 targets from the supplement of paper PMC12819154, “High-throughput peptide-centric local stability assay extends protein–ligand identification to membrane proteins, tissues and bacteria” (Nature Structural & Molecular Biology, 2025).

Amino acid sequences for entries named in this document (tags omitted). A change or cut given only in a name is not applied to a line headed by its entry.
UniProt Q9ULG1, whole entry: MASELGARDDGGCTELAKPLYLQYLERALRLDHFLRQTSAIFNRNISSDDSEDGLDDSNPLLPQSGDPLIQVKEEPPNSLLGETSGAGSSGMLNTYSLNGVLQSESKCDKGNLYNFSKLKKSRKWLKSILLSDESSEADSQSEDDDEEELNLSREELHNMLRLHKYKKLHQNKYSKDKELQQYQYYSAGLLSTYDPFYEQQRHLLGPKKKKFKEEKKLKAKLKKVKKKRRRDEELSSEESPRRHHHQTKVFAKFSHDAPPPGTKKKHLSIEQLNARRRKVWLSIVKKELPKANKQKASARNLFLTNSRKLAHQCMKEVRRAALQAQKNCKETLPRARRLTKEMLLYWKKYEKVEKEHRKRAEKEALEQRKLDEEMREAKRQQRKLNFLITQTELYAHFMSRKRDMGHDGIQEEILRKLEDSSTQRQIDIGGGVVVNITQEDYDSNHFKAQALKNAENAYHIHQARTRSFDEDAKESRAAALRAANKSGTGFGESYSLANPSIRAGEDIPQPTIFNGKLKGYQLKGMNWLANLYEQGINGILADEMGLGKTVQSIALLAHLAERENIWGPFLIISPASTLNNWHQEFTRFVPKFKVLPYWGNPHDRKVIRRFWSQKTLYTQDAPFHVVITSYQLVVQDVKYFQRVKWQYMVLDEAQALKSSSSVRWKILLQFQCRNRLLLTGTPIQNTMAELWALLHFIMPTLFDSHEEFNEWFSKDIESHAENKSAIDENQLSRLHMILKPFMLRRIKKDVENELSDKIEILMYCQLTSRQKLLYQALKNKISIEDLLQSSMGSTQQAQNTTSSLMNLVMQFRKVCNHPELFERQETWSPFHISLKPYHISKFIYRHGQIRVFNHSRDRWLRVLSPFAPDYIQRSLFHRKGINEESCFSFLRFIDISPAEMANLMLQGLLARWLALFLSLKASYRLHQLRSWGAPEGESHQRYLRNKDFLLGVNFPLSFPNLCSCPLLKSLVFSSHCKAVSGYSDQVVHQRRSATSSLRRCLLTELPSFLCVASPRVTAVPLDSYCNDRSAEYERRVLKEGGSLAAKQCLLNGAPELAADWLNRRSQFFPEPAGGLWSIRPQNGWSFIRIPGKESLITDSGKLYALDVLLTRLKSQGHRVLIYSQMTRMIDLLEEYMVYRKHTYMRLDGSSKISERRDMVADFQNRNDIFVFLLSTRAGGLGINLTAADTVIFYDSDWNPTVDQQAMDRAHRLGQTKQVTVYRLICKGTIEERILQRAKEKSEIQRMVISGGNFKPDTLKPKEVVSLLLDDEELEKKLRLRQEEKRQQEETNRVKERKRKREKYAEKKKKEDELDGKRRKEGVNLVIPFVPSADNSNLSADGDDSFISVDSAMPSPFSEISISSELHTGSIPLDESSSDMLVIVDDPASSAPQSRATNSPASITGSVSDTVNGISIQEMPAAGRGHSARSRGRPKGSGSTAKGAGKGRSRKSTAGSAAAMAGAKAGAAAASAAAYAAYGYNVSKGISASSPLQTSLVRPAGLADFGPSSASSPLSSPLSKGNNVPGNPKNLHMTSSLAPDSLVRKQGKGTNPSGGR
UniProt Q9UQ84: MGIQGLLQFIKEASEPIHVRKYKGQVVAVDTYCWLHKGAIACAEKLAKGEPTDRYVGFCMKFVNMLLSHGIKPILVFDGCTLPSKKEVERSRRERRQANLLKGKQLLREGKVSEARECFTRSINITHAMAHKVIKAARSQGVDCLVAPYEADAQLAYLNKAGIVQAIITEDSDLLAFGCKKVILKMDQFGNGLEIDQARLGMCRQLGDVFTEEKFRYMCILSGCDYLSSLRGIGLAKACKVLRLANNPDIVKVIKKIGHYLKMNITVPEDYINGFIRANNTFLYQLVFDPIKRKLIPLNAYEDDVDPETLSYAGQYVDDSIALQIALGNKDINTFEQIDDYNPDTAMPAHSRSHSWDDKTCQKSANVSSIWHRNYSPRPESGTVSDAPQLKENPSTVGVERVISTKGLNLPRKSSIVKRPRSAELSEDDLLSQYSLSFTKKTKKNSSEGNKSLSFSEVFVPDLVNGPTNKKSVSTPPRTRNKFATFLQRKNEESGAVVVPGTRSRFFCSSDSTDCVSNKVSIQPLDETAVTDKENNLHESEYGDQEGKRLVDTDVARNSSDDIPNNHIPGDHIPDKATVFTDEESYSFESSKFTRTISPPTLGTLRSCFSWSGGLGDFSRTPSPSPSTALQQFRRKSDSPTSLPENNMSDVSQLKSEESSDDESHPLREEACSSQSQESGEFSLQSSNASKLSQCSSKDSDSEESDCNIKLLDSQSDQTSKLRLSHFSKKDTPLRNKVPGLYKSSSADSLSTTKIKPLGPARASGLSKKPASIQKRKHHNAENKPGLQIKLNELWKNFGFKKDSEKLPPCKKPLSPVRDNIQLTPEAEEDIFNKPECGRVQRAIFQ
UniProt Q9ULJ8: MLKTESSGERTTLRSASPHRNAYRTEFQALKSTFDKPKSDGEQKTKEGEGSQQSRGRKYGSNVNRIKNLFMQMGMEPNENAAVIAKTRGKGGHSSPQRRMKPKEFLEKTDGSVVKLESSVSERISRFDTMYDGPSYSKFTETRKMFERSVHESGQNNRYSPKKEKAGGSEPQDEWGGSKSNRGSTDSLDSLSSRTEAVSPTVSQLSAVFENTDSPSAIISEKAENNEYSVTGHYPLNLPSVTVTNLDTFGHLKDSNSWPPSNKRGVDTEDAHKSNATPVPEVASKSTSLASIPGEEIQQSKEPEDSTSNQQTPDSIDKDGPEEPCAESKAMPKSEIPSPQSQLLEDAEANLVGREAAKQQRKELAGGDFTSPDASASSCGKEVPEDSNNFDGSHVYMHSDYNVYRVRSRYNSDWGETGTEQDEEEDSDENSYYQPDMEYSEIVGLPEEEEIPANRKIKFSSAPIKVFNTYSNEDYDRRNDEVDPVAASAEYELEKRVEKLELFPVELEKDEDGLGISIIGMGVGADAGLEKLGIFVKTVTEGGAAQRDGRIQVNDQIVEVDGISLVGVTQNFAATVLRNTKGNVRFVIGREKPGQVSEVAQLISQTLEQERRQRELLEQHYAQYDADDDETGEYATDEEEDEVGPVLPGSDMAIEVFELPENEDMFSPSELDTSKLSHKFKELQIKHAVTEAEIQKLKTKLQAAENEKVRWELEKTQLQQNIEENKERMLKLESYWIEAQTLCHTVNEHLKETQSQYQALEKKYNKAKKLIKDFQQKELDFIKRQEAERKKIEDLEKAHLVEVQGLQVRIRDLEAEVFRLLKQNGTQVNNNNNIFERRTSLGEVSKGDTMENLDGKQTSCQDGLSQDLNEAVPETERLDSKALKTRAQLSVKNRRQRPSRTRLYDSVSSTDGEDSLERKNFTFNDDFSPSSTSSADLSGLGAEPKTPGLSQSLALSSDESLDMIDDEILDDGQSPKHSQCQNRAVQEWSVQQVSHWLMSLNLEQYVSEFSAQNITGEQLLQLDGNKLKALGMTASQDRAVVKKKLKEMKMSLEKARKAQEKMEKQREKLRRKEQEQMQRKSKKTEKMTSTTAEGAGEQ
UniProt Q9UNM6: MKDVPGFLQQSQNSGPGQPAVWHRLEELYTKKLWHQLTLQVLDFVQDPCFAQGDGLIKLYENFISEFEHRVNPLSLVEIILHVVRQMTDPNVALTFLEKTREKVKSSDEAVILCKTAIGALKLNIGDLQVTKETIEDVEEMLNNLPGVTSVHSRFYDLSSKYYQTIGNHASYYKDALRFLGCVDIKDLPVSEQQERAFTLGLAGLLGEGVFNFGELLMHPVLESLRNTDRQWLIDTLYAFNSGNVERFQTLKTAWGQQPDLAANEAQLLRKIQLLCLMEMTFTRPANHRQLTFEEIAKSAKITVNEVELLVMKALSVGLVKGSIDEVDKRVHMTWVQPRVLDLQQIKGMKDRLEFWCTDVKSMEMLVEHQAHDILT
UniProt Q9UPR3: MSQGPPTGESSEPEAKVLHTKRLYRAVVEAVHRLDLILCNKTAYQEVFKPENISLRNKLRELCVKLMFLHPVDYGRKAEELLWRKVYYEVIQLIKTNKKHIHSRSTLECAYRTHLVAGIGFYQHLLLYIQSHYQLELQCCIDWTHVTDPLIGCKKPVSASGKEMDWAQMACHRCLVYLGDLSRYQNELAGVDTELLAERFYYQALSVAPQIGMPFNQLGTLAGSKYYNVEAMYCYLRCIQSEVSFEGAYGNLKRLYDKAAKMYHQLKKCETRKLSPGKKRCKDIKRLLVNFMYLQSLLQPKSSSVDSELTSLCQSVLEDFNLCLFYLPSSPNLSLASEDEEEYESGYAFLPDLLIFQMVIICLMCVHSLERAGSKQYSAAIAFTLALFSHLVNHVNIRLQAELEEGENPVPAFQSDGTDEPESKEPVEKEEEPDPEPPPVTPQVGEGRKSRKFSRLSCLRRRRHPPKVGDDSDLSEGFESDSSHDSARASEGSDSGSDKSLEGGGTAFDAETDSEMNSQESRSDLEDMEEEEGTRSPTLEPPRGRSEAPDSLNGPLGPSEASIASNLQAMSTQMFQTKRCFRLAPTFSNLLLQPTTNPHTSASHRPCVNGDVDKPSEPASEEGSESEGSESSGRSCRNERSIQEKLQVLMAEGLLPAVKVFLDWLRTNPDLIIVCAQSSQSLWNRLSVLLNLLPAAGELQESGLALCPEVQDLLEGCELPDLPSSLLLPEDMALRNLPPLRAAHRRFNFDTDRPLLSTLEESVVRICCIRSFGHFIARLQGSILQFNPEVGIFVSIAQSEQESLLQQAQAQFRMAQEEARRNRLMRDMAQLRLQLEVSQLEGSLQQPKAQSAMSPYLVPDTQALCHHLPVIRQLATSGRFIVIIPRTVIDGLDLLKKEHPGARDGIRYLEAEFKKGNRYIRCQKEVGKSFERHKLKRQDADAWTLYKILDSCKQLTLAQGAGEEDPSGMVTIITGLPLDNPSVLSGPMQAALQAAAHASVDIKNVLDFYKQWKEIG
UniProt Q9Y314: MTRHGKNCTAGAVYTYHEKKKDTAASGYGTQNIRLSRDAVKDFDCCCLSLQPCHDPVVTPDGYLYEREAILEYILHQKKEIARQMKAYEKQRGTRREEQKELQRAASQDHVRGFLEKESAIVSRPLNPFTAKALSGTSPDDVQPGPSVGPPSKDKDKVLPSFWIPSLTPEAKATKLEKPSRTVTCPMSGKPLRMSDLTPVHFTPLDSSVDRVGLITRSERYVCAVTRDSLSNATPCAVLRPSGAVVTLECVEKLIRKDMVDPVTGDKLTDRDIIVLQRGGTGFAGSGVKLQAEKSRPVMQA
UniProt Q9UQE7: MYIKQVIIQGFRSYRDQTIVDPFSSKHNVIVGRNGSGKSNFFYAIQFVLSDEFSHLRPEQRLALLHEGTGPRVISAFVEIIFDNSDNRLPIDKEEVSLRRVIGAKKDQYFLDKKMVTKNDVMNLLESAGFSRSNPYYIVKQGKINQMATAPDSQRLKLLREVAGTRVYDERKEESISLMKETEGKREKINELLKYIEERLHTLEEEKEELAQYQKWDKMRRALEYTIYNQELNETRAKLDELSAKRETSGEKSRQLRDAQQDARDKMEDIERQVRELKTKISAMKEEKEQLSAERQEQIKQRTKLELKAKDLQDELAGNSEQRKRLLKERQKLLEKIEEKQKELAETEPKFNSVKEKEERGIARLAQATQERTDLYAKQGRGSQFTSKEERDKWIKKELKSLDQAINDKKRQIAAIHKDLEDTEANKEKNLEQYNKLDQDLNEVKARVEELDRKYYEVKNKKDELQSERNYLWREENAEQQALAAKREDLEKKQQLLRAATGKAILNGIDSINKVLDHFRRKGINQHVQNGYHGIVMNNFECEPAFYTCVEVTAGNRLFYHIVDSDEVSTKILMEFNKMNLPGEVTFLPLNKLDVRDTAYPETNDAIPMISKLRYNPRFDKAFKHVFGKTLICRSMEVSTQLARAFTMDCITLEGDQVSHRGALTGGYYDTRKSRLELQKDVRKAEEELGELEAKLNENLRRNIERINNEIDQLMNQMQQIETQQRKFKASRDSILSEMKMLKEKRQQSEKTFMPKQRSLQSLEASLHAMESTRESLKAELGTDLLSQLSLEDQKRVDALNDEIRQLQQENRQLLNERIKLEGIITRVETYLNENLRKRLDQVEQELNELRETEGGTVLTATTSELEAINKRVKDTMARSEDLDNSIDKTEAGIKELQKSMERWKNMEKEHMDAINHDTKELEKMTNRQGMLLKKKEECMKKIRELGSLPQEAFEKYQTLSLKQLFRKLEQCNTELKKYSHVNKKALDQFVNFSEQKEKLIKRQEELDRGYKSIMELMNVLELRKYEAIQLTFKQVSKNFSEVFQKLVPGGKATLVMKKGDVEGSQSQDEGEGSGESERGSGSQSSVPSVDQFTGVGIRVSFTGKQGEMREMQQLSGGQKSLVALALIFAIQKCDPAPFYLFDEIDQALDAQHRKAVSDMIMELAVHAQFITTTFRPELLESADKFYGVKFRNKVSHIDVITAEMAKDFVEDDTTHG
UniProt Q9Y2S6, whole entry: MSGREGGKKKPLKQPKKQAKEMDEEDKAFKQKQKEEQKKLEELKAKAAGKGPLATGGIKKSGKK

Some of the results follow. Most entries show no effect beyond the scatter of the controls.

Compound in the assay: CN[C@@H]1C[C@H]2O[C@@](C)([C@@H]1OC)n1c3ccccc3c3c4c(c5c6ccccc6n2c5c31)C(=O)NC4 [staurosporine]
As to the kind of experiment: log2 fold change of tryptic peptide abundance, ligand vs vehicle (limited proteolysis) (log2 ratio); higher = more trypsin-susceptible (destabilized). The note with it: ligand concentration: 20 uM; sample: K562 cleared lysate; digestion: 4 min, 22 C (HT-PELSA RT4min, Orbitrap Astral).
“ZNF652 (peptide sequence: GQSEDNFLR, peptide start residue: 586) (UniProt Q9Y2D9)”: the log2 fold change was -0.0819. Turning to “INO80 (peptide sequence: AGAAAASAAAYAAYGYNVSK, peptide start residue: 1465) (UniProt Q9ULG1)”, the log2 fold change was -0.501. Regarding “EXO1 (peptide sequence: SHSWDDKTCQK, peptide start residue: 353) (UniProt Q9UQ84)”, the log2 fold change was -0.623.

With “PPP1R9A (peptide sequence: MTSTTAEGAGEQ, peptide start residue: 1087) (UniProt Q9ULJ8)”, the log2 fold change was -0.107. For “PSMD13 (peptide sequence: QLTFEEIAK, peptide start residue: 290) (UniProt Q9UNM6)” the value was 0.548. Under “SMG5 (peptide sequence: STLECAYR, peptide start residue: 105) (UniProt Q9UPR3)” stands -0.398; under “NOSIP (peptide sequence: EAILEYILHQK, peptide start residue: 68) (UniProt Q9Y314)”, -0.212. On to “SMC3 (peptide sequence: VEELDRK, peptide start residue: 448) (UniProt Q9UQE7)”, for which the log2 fold change was determined as 0.311. Turning to “NISCH (peptide sequence: GSAIIELFHSSIAEVENEELR, peptide start residue: 1139) (UniProt Q9Y2I1)”, the log2 fold change was 0.789. Regarding “UniProt Q9Y2S6 (peptide sequence: AAGKGPLATGGIKK, peptide start residue: 47)”, the log2 fold change was 0.194.
